From the supplement of paper PMC6414424
± gives the standard deviation of the averaged measurements. The list shows a part of the results.

What follows are molecules tested on APPdp1-6 iPSC-derived neurons (assay: pThr231Tau/total Tau ratio Z-score vs DMSO vehicle wells; higher = more pThr231Tau relative to total Tau). Conditions: 5 µM; treatment time 5 days.

| SMILES | pThr231Tau/total Tau ratio Z-score |
| --- | --- |
| C#C[C@]1(O)CC[C@H]2[C@@H]3CCc4cc(O)ccc4[C@H]3CC[C@@]21C [Prestw-1405] | 0.21 ± 1.4 |
| CC(C(=O)O)c1cccc(C(=O)c2ccccc2)c1 (stereo not given) [Prestw-219] | -0.844 ± 0.76 |
| Nc1nc(N)c2nc(CNc3ccc(C(=O)N[C@@H](CCC(=O)O)C(=O)O)cc3)cnc2n1 [Dihydrofolate reductase inhibitor] | 0.944 ± 0.22 |
| CCOC(=O)c1ncn2c1CN(C)C(=O)c1cc(F)ccc1-2 [Benzodiazepine receptor antagonist] | -0.315 ± 0.74 |
| O=NN(CCCl)C(=O)NCCCl [DNA alkylating agent; causes interstrand crosslinks] | 1.22 ± 0.67 |
| CCCC1O[C@@H]2C[C@H]3[C@@H]4CCC5=CC(=O)C=C[C@]5(C)[C@H]4[C@@H](O)C[C@]3(C)[C@]2(C(=O)CO)O1 (stereo not given in full) [Prestw-518] | 1.43 ± 1.8 |
| O=C([O-])CN(CCN(CC(=O)[O-])CC(=O)O)CC(=O)[O-].[Na+].[Na+].[Na+] | 0.286 ± 0.17 |
| NS(=O)(=O)c1cc2c(cc1Cl)NC(CSCc1ccccc1)=NS2(=O)=O [Prestw-824] | 0.118 ± 0.27 |
| CC1(C)S[C@@H]2[C@H](NC(=O)[C@H](C(=O)O)c3ccsc3)C(=O)N2[C@H]1C(=O)O [Prestw-1067] | -0.609 ± 0.54 |
| Cc1cc(NS(=O)(=O)c2ccc(N)cc2)no1 [Prestw-177] | -0.171 ± 0.23 |
| CN[C@@H]1[C@@H](O)[C@@H](O[C@@H]2[C@@H](O)[C@H](O[C@H]3OC(CN)=CC[C@H]3N)[C@@H](N)C[C@H]2N)OC[C@]1(C)O [Prestw-506] | 0.178 ± 0.28 |
| CCOC(=O)n1ccn(C)c1=S [Prestw-439] | -1.06 ± 0.54 |
| C[C@H](N)[C@H](O)c1cccc(O)c1 [Prestw-197] | 0.21 ± 0.38 |
| CC1(C)S[C@@H]2[C@H](NC(=O)C(C(=O)O)c3ccccc3)C(=O)N2[C@H]1C(=O)O (stereo not given in full) [CARBENICILLIN DISODIUM    Therap cat:  Antibacterial] | 0.461 ± 0.24 |
| CCN(CC)CCOC(=O)C(Cc1cccc2ccccc12)CC1CCCO1 (stereo not given) [Prestw-377] | 0.944 ± 0.81 |
| NC(=NCCCCCCN=C(N)/N=C(\N)Nc1ccc(Cl)cc1)/N=C(\N)Nc1ccc(Cl)cc1 [Prestw-143] | -2.59 ± 0.29 |
| O=C1CN(/N=C/c2ccc([N+](=O)[O-])o2)C(=O)N1 [Prestw-168] | -1.99 ± 1.8 |
| Cc1ccccc1OCC(O)CO (stereo not given) [Prestw-178] | 0.109 ± 0.6 |
| Nc1c2c(nc3ccccc13)CCCC2 [Prestw-329] | 0.826 ± 1.7 |
| C=C[C@@]1(C)CC(=O)[C@]2(O)[C@@]3(C)[C@@H](O)CCC(C)(C)[C@@H]3[C@H](O)[C@H](OC(C)=O)[C@@]2(C)O1 | 0.47 ± 0.69 |

Two entries from above, tab-delimited.
SMILES	pThr231Tau/total Tau ratio Z-score
Nc1nc(N)c2nc(CNc3ccc(C(=O)N[C@@H](CCC(=O)O)C(=O)O)cc3)cnc2n1 [Dihydrofolate reductase inhibitor]	0.944 ± 0.22
NS(=O)(=O)c1cc2c(cc1Cl)NC(CSCc1ccccc1)=NS2(=O)=O [Prestw-824]	0.118 ± 0.27
